Values from PubChem BioAssay AID1159508 (Drosophila RNAi Screening Center, 2015).

Test: 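Viability reference data for a dsRNA library against RNA-binding protein genes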
Cell system: Drosophila S2R+ cells
Reagents: long dsRNA against Drosophila genes
Duration: 5 days
Read-out: 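Luminescent ATP signal as a proxy for cell fitness after 5 days of RNAi, given as a z-score in each replicate and averaged over replicates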
Reading the numbers: mean ATP z-score: higher = more total ATP luminescence
Call rule: In these data the active calls have mean ATP z-score at about -2 or lower, or at about 2 or higher
Meaning of the calls: active = strong ATP change (up or down); inactive = no strong ATP change
The deposit covers 812 reagents; this is a part drawn at random. In the full data, 18 (2.2%) got an active call. 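Calls include both increased and decreased ATP; roughly one in four reagents has no third replicate value.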 Reagents against one gene are numbered here. Not all columns of the deposit are shown. Not stated in the record: the amount of reagent.

mean ATP z-score, by gene and reagent
CG3808: #1 0.923 inactive; #2 1.38 inactive
CG4884: #1 -0.368 inactive; #2 0.714 inactive
Synj (Synaptojanin): #1 -0.0878 inactive; #2 -0.812 inactive
Prp18: #1 -0.0969 inactive; #2 -0.186 inactive
eEF1alpha2 (eukaryotic translation elongation factor 1 alpha 2): #1 -0.457 inactive; #2 -0.728 inactive
Nsun2 (NOP2-Sun domain family, member 2): #1 0.48 inactive; #2 -0.0382 inactive
Sf3b6 (Splicing factor 3b subunit 6): #1 -1.12 inactive; #2 -1.06 inactive
Srp54k (Signal recognition particle 54k): #1 -0.208 inactive; #2 1.17 inactive
Trm1 (tRNA methyltransferase 1): #1 0.0875 inactive; #2 0.588 inactive
CG14718: #1 -0.0372 inactive; #2 0.632 inactive
piwi (P-element induced wimpy testis): #1 0.497 inactive; #2 -0.29 inactive
Sxl (Sex lethal): #1 -0.672 inactive; #2 0.67 inactive
dbe (dribble): #1 -1.04 inactive; #2 -0.405 inactive
spoon (spoonbill): #1 0.128 inactive; #2 -0.696 inactive
su(sable) (suppressor of sable): #1 1.12 inactive; #2 2 active
kz (kurz): #1 0.662 inactive; #2 0.385 inactive
CG12288: #1 -0.215 inactive; #2 -0.146 inactive
beta-PheRS (Phenylalanyl-tRNA synthetase, beta-subunit): #1 -0.98 inactive; #2 -1.72 inactive
Pabp2: #1 0.289 inactive; #2 -0.498 inactive
Sbp2 (SECIS-binding protein 2): #1 0.357 inactive; #2 -0.393 inactive
Nufip: #1 0.0915 inactive; #2 0.16 inactive

Records listed so far whose target name starts with D or d:
mean ATP z-score, by gene and reagent
dbe (dribble): #1 -1.04 inactive; #2 -0.405 inactive
